Some results were stated once for a whole list of compounds, not compound by compound.
What was measured:
[1] = system: Alternaia brassicicola; experiment: Test Example C: Alternaria sooty spot on cabbage; conditions: 250 ppm sprayed (2.5 ml/pot) on cabbage (Shikidori); disease development 2 to 3 days after inoculation
[2] = system: Blumeria graminis f. sp. hordei; experiment: Test Example D: Powdery mildew on barley; conditions: 250 ppm sprayed (2.5 ml/pot) on barley (Akashinriki); disease development 6 to 10 days after inoculation
[3] = system: Puccinia recondita; experiment: Test Example E: Brown rust on wheat; format: in vivo; conditions: 250 ppm sprayed (2.5 ml/pot) on wheat (Norin 61); disease development 7 to 10 days after inoculation
[4] = system: Plasmopara viticola; experiment: Test Example G: Downy mildew on vine; conditions: 250 ppm sprayed (2.5 ml/pot) on grape (Neomuscat); disease development 7 to 10 days after inoculation
[5] = system: Botrytis cinerea; experiment: Test Example B: Gray mold on tomato; conditions: 250 ppm sprayed (2.5 ml/pot) on tomato (Oogata Fukuju); disease development 2 to 3 days after inoculation
[6] = system: Magnaporthe grisea; format: in vivo; conditions: 250 ppm sprayed (2.5 ml/pot) on rice (Sachikaze); disease development 6 to 10 days after inoculation
[7] = system: Colletotrichum orbiculare; experiment: Test Example H: Anthracnose on cucumber; conditions: 250 ppm sprayed (2.5 ml/pot) on cucumber (Sagami Hanjiro); disease development 6 to 10 days after inoculation

Measured: control value

CCn1c(-c2ccc(F)cc2)c(-c2cc(OC)cc(OC)c2Cl)ccc1=O [compound 125]
> 50%: all assays above

CCn1c(-c2ccccc2)c(-c2cc(OC)cc(OC)c2Br)ccc1=O [compound 3]
> 50%: all assays above

CCn1c(-c2ccc(F)cc2)c(-c2ccc(F)cc2Cl)cc(Cl)c1=O [compound 351]
> 50%: all assays above

Cn1c(-c2ccc(F)cc2)c(-c2cc(F)ccc2Cl)ccc1=O [compound 8]
> 50%: all assays above

O=c1c(Br)cc(-c2ccc(F)cc2Cl)c(-c2ccccc2)n1CC(F)F [compound 509]
> 50%: all assays above

CCn1c(-c2ccc(Br)cc2)c(-c2cc(F)cc(F)c2Cl)cc(Cl)c1=O [compound 310]
> 50%: all assays above

CCn1c(-c2ccc(F)cc2)c(-c2cc(Cl)ccc2Cl)ccc1=O [compound 416]
> 50%: all assays above

CCn1c(-c2ccc(OC)cc2)c(-c2cc(F)ccc2Cl)cc(Br)c1=O [compound 41]
> 50%: all assays above

CCn1c(-c2ccc(F)cc2)c(-c2ccccc2Cl)ccc1=O [compound 111]
> 50%: all assays above

C#CCOc1ccc(-c2c(-c3cc(F)cc(F)c3Cl)cc(Cl)c(=O)n2CC)cc1 [compound 369]
> 50%: all assays above

CCn1c(-c2ccc(OC)cc2)c(-c2ccccc2Cl)ccc1=O [compound 113]
> 50%: all assays above

Cn1c(-c2ccccc2)c(-c2cc(F)cc(F)c2Cl)ccc1=O [compound 20]
> 50%: all assays above

CCn1c(-c2ccc(OC)cc2)c(-c2cc(F)cc(F)c2Cl)cc(Br)c1=O [compound 36]
> 50%: all assays above

O=c1c(Cl)cc(-c2ccccc2Cl)c(-c2ccc(F)cc2)n1CC(F)F [compound 407]
> 50%: all assays above

CCn1c(-c2ccc(F)cc2)c(-c2cc(OCC(F)F)ccc2Cl)cc(Cl)c1=O [compound 247]
> 50%: all assays above

O=c1ccc(-c2cccc(F)c2Cl)c(-c2ccc(F)cc2)n1CC(F)F [compound 460]
> 50%: all assays above

CCn1c(-c2ccccc2)c(-c2cc(F)cc(F)c2Cl)ccc1=O [compound 16]
> 50%: all assays above

O=c1ccc(-c2ccccc2Cl)c(-c2ccc(F)cc2)n1CC(F)F [compound 406]
> 50%: all assays above

CCn1c(-c2ccc(OC)cc2)c(-c2cc(F)ccc2Cl)ccc1=O [compound 40]
> 50%: all assays above

CCn1c(-c2ccc(OC)cc2)c(-c2cccc(F)c2Cl)cc(Cl)c1=O [compound 55]
> 50%: all assays above

CCOC(=O)Oc1ccc(Cl)c(-c2cc(Cl)c(=O)n(CC)c2-c2ccc(F)cc2)c1 [compound 253]
> 50%: all assays above

O=c1c(Cl)cc(-c2cccc(F)c2Cl)c(-c2ccccc2)n1CC(F)F [compound 459]
> 50%: all assays above

CCn1c(-c2ccccc2)c(-c2cc(OC)ccc2Cl)ccc1=O [compound 84]
> 50%: all assays above

CCn1c(-c2ccc(F)cc2)c(-c2cc(OC(=O)OC)ccc2Cl)cc(Cl)c1=O [compound 252]
> 50%: all assays above

CCn1c(-c2ccc(F)cc2)c(-c2ccc(C)cc2Cl)ccc1=O [compound 397]
> 50%: all assays above

Cc1ccccc1-c1ccc(=O)n(CC(F)F)c1-c1ccc(F)cc1 [compound 527]
> 50%: all assays above

O=c1c(Br)cc(-c2cc(F)ccc2Br)c(-c2ccccc2)n1CC(F)F [compound 501]
> 50%: all assays above

CCn1c(-c2ccc(F)cc2)c(-c2cc(F)cc(F)c2Br)cc(Cl)c1=O [compound 132]
> 50%: all assays above

Cc1ccc(F)cc1-c1ccc(=O)n(CC(F)F)c1-c1ccc(F)cc1 [compound 473]
> 50%: all assays above
